Data: the supplement of paper PMC5949888
± gives the standard deviation of the averaged measurements. Most values lie at the floor of the assay. Slopes are relative: functional sequences can read slightly below zero.

These substances were tested on Saccharomyces cerevisiae PS128 hsf1 delta, HSF1(1-493) fusion (assay: growth estimate (transactivation domain function in HSF1 fusion, heat-shock survival) (a.u. (slope of normalised read count over time)); higher = stronger growth at 37°C, i.e. more transactivation activity). Conditions: library: random library.

Q: For RVASLEFRIGPPCAVFRKL, which growth estimate is on record?
A: < -0.25

Q: How did the growth estimate turn out when RVAV was run?
A: -0.209 ± 0.058

Q: With RVAVGMHGIDIGRGDGGTCL as the substance, how does the growth estimate read?
A: < -0.25

Q: For RVDCQQSPTRPNAQGPTKGY, which growth estimate is on record?
A: < -0.25

Q: With RVDKQ as the substance, how does the growth estimate read?
A: < -0.25

Q: Which growth estimate does the source give for RVEDRVPPDLRDHVFLAKPS here?
A: < -0.25

Q: Which growth estimate does the source give for RVEGVSGETDVERATKVAHM here?
A: < -0.25

Q: With RVEL as the substance, how does the growth estimate read?
A: < -0.25

Q: Which growth estimate does the source give for RVERFGSPVARPGRASRLSS here?
A: < -0.25

Q: Which growth estimate does the source give for RVESPKCTMDIFSMGLCGQI here?
A: < -0.25

Q: With RVEVVSG as the substance, how does the growth estimate read?
A: < -0.25

Q: For RVFCEECRQHRAHPRQNFID, which growth estimate is on record?
A: < -0.25

Q: Which growth estimate does the source give for RVFVARPPRLRNCIWP here?
A: < -0.25

Q: Which growth estimate does the source give for RVGCTLLVTRIPPRFVSSVA here?
A: < -0.25

Q: How did the growth estimate turn out when RVGKGGVNPQVRAHSFVVLD was run?
A: < -0.25

Q: For RVGMTRLIL, which growth estimate is on record?
A: < -0.25

Q: With RVGNTTSAVSYGPIPGHDVA as the substance, how does the growth estimate read?
A: < -0.25

Q: With RVGSGRPYDL as the substance, how does the growth estimate read?
A: < -0.25

Q: With RVHIISTSTYWSVWPYFN as the substance, how does the growth estimate read?
A: < -0.25

Q: With RVIDSWD as the substance, how does the growth estimate read?
A: < -0.25

Q: For RVIW, which growth estimate is on record?
A: < -0.25

Q: With RVKAAYRYGLV as the substance, how does the growth estimate read?
A: < -0.25

Q: RVKMLTYARCNLEGGCWVY was tested. Which growth estimate did it give?
A: < -0.25

Q: How did the growth estimate turn out when RVKNRVRRLAVLRIGAVYKH was run?
A: < -0.25

Q: RVLCLARRAQYHSVLDCFAF was tested. Which growth estimate did it give?
A: < -0.25

Q: RVLDGNFESQGQARHPMESS was tested. Which growth estimate did it give?
A: < -0.25

Q: With RVLHEQR as the substance, how does the growth estimate read?
A: < -0.25

Q: With RVLKISSHGRGS as the substance, how does the growth estimate read?
A: < -0.25

Q: How did the growth estimate turn out when RVLLK was run?
A: < -0.25

Q: For RVLRERTIAGRRILLFHLQP, which growth estimate is on record?
A: < -0.25

Q: With RVLTSLGRDNFTCLVWGIWG as the substance, how does the growth estimate read?
A: < -0.25

Q: For RVMLTAGTRTG, which growth estimate is on record?
A: < -0.25

Q: Which growth estimate does the source give for RVMSPQQGAGINEVDLADRP here?
A: < -0.25

Q: Which growth estimate does the source give for RVMTRGR here?
A: -0.246

Q: With RVNLHG as the substance, how does the growth estimate read?
A: -0.0128

Q: RVPAIHPPCIELLSQSSSVR was tested. Which growth estimate did it give?
A: < -0.25

Q: Which growth estimate does the source give for RVPWTWQ here?
A: < -0.25

Q: How did the growth estimate turn out when RVQQPGLGRGLCGPNIVVFY was run?
A: < -0.25

Q: Which growth estimate does the source give for RVQTATLLYIREPCM here?
A: < -0.25

Q: With RVRAGSRNLPPLVRERIRDP as the substance, how does the growth estimate read?
A: < -0.25

Q: With RVRDPSFSKGEILG as the substance, how does the growth estimate read?
A: < -0.25

Q: For RVRGISCDPTTSSRLFRPLA, which growth estimate is on record?
A: < -0.25

Q: For RVRHFWR, which growth estimate is on record?
A: < -0.25

Q: RVRKMFCGSDICPDYLVHVN was tested. Which growth estimate did it give?
A: < -0.25

Q: For RVRLIESRYASTR, which growth estimate is on record?
A: < -0.25

Q: Which growth estimate does the source give for RVRLISTRVVFLTECYPVLT here?
A: < -0.25

Q: With RVRRIITRKKSLVYYLRRQS as the substance, how does the growth estimate read?
A: < -0.25

Q: Which growth estimate does the source give for RVRSHHGRLARDGRFALGSL here?
A: < -0.25

Q: For RVRSTHCSMAPDDNSIALLL, which growth estimate is on record?
A: < -0.25

Q: RVRYGDLVTRCQRPEHFRKS was tested. Which growth estimate did it give?
A: < -0.25

Q: With RVRYVVGKFTLLSRSSRVYA as the substance, how does the growth estimate read?
A: < -0.25

Q: For RVSCETDLTCANSGEDSIDL, which growth estimate is on record?
A: < -0.25

Q: How did the growth estimate turn out when RVSEVLGSALGASACPLRST was run?
A: < -0.25

Q: Which growth estimate does the source give for RVSGRLRSHMG here?
A: < -0.25

Q: Which growth estimate does the source give for RVSGSVQ here?
A: -0.246

Q: Which growth estimate does the source give for RVSIGCFRCFPSQVPLSRPL here?
A: < -0.25

Q: With RVSKG as the substance, how does the growth estimate read?
A: < -0.25

Q: How did the growth estimate turn out when RVSPPSSQVILNLSAFCEVA was run?
A: < -0.25

Q: RVSPRRTEEHQTGAIARCQA was tested. Which growth estimate did it give?
A: < -0.25

Q: For RVSSTLVRSVIKSS, which growth estimate is on record?
A: < -0.25

Q: For RVSTELKSYSSRSAGASARV, which growth estimate is on record?
A: -0.197

Q: How did the growth estimate turn out when RVSVGRLV was run?
A: < -0.25

Q: How did the growth estimate turn out when RVT was run?
A: < -0.25

Q: RVTAWHSLTVADKCAVAVCT was tested. Which growth estimate did it give?
A: < -0.25

Q: With RVTPVPSITFIRFG as the substance, how does the growth estimate read?
A: < -0.25

Q: For RVV, which growth estimate is on record?
A: < -0.25

Q: For RVVLERGCTIRKYPATAWRG, which growth estimate is on record?
A: < -0.25

Q: How did the growth estimate turn out when RVVPIRAEYTSNART was run?
A: < -0.25

Q: How did the growth estimate turn out when RVVPPPNGKHGRCWFRERYC was run?
A: < -0.25

Q: How did the growth estimate turn out when RVVPWNILDQTSSPTS was run?
A: < -0.25

Q: Which growth estimate does the source give for RVVRAGWRRTGWRNQ here?
A: < -0.25

Q: Which growth estimate does the source give for RVVRINPPPVRHGTAVHSGG here?
A: < -0.25

Q: With RVWRGEPRTV as the substance, how does the growth estimate read?
A: < -0.25

Q: RVWSEQVIF was tested. Which growth estimate did it give?
A: < -0.25

Q: Which growth estimate does the source give for RVWWKGASRWIEIRPGQGCP here?
A: < -0.25

Q: How did the growth estimate turn out when RVYGSGRDPSGWIVLYPECR was run?
A: < -0.25

Q: RVYMYVNIDRFAGIPHTEFM was tested. Which growth estimate did it give?
A: < -0.25

Q: With RVYPTHGFEARAREKVTV as the substance, how does the growth estimate read?
A: < -0.25

Q: How did the growth estimate turn out when RWAKDRTGKLWMGASGKKMC was run?
A: < -0.25

Q: With RWAL as the substance, how does the growth estimate read?
A: < -0.25

Q: Which growth estimate does the source give for RWANTVYL here?
A: < -0.25

Q: Which growth estimate does the source give for RWAYRVARVNFVVKKGPSVT here?
A: < -0.25

Q: With RWD as the substance, how does the growth estimate read?
A: < -0.25

Q: Which growth estimate does the source give for RWEHGGISSPKSDFLELGGP here?
A: < -0.25

Q: For RWERVRHLGRPHGLHTML, which growth estimate is on record?
A: < -0.25

Q: For RWGTIHRGLIPLISAKCIIP, which growth estimate is on record?
A: < -0.25

Q: Which growth estimate does the source give for RWLQSFDKLFNGSSILRARR here?
A: < -0.25

Q: Which growth estimate does the source give for RWMD here?
A: < -0.25

Q: For RWPDKPCCSRE, which growth estimate is on record?
A: < -0.25

Q: RWPVLVRLNVYGQEAARILQ was tested. Which growth estimate did it give?
A: < -0.25

Q: With RWQDP as the substance, how does the growth estimate read?
A: < -0.25

Q: RWQHFVYSGRVRNRVALMGR was tested. Which growth estimate did it give?
A: < -0.25

Q: With RWRLMRVHSNAISADSTLN as the substance, how does the growth estimate read?
A: < -0.25

Q: Which growth estimate does the source give for RWRLNKS here?
A: < -0.25

Q: How did the growth estimate turn out when RWSA was run?
A: < -0.25

Q: How did the growth estimate turn out when RWSAT was run?
A: < -0.25

Q: RWSSLGCLPVNYGH was tested. Which growth estimate did it give?
A: < -0.25

Q: RWSTGARVPCPGQIYHFLAS was tested. Which growth estimate did it give?
A: < -0.25

Q: How did the growth estimate turn out when RWVRQCRPGDSNQSIAGRNV was run?
A: < -0.25

Q: With RWWIFELFVT as the substance, how does the growth estimate read?
A: < -0.25

Q: Which growth estimate does the source give for RYC here?
A: < -0.25

Q: With RYCPNAPKPVRCCCANDIRG as the substance, how does the growth estimate read?
A: < -0.25

Q: With RYCTEQKVNHHRENP as the substance, how does the growth estimate read?
A: < -0.25

Q: For RYDRRMD, which growth estimate is on record?
A: < -0.25

Q: RYDYFPNKGRHCDGGARPQL was tested. Which growth estimate did it give?
A: < -0.25

Q: How did the growth estimate turn out when RYGRVGLRVFSSFGHW was run?
A: < -0.25

Q: RYGVCFRSFRCGIRMNRVAL was tested. Which growth estimate did it give?
A: -0.231

Q: For RYI, which growth estimate is on record?
A: < -0.25

Q: For RYLV, which growth estimate is on record?
A: < -0.25

Q: Which growth estimate does the source give for RYNGNPHAAGCGSHGWLPLH here?
A: < -0.25

Q: How did the growth estimate turn out when RYNRGIRFGAPVDTRST was run?
A: < -0.25

Q: For RYNYAVSHGCNGGVARVGGG, which growth estimate is on record?
A: < -0.25

Q: RYQTGTVMKYRGSGVHLILA was tested. Which growth estimate did it give?
A: < -0.25

Q: RYRAPYANDTMRATQNLQFA was tested. Which growth estimate did it give?
A: < -0.25

Q: With RYRCLGGLLTGKGVETGRDV as the substance, how does the growth estimate read?
A: < -0.25

Q: With RYRGLGQVSHSKLISLDSSH as the substance, how does the growth estimate read?
A: < -0.25

Q: With RYRQERATH as the substance, how does the growth estimate read?
A: < -0.25

Q: How did the growth estimate turn out when RYRQTAPYPADSKRS was run?
A: -0.233

Q: For RYSFADGYSHWFVGETITHT, which growth estimate is on record?
A: -0.234

Q: RYSFCSFYGIHAFSGIRRDT was tested. Which growth estimate did it give?
A: < -0.25

Q: With RYSLVS as the substance, how does the growth estimate read?
A: < -0.25

Q: Which growth estimate does the source give for RYSRNLECKDCRYLPPGLTC here?
A: < -0.25

Q: For RYTRCLPYSVRGSAS, which growth estimate is on record?
A: < -0.25

Q: With RYTRVGYSWGLLRGSLRCHI as the substance, how does the growth estimate read?
A: < -0.25

Q: How did the growth estimate turn out when RYTTPMGTSWHTYLCQLRVI was run?
A: < -0.25

Q: For RYVEPD, which growth estimate is on record?
A: < -0.25

Q: With RYVFEGV as the substance, how does the growth estimate read?
A: < -0.25

Q: For RYVKLFKIKDVPTVLISQAG, which growth estimate is on record?
A: < -0.25

Q: How did the growth estimate turn out when RYVMDVGHFRLKSRRTH was run?
A: < -0.25

Q: For RYWVQNRTQLVLLGTEAIGP, which growth estimate is on record?
A: < -0.25

Q: RYYCERE was tested. Which growth estimate did it give?
A: -0.246

Q: How did the growth estimate turn out when SAA was run?
A: < -0.25

Q: For SAAAY, which growth estimate is on record?
A: < -0.25

Q: SAADGKRLHRSRR was tested. Which growth estimate did it give?
A: < -0.25

Q: How did the growth estimate turn out when SAAGEA was run?
A: -0.246

Q: SAASY was tested. Which growth estimate did it give?
A: < -0.25

Q: For SAATPQIRISSLS, which growth estimate is on record?
A: < -0.25

Q: SACALGQRRGSRYAGDGGSA was tested. Which growth estimate did it give?
A: < -0.25

Q: SADPRRLNVLLTIAALVFAW was tested. Which growth estimate did it give?
A: < -0.25

Q: SADSDHQTGEMLRGVRCM was tested. Which growth estimate did it give?
A: < -0.25

Q: How did the growth estimate turn out when SAELLVLFYRRRYIGGRTSW was run?
A: < -0.25

Q: How did the growth estimate turn out when SAGCLVGSCTLESDQLGPGL was run?
A: < -0.25

Q: SAGNEQTGCHSTF was tested. Which growth estimate did it give?
A: < -0.25

Q: How did the growth estimate turn out when SAGRGEAALGFVFFNAGVNQ was run?
A: < -0.25
